# Results of single-concentration screens

Protein sequences, listed by entry. Tags and fused reporters are not part of them. Residues count along the entry.
UniProt P9WFT3, whole entry: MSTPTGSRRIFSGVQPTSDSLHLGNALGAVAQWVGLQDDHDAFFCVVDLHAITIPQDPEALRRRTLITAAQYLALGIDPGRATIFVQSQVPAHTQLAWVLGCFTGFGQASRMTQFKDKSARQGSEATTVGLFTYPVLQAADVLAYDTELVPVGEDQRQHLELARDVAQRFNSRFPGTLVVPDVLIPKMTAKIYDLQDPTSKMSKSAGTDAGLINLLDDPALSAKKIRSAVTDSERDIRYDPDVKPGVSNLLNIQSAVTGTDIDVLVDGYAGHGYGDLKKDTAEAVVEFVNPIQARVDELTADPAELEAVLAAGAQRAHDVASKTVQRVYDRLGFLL
UniProt I6X8D2, whole entry: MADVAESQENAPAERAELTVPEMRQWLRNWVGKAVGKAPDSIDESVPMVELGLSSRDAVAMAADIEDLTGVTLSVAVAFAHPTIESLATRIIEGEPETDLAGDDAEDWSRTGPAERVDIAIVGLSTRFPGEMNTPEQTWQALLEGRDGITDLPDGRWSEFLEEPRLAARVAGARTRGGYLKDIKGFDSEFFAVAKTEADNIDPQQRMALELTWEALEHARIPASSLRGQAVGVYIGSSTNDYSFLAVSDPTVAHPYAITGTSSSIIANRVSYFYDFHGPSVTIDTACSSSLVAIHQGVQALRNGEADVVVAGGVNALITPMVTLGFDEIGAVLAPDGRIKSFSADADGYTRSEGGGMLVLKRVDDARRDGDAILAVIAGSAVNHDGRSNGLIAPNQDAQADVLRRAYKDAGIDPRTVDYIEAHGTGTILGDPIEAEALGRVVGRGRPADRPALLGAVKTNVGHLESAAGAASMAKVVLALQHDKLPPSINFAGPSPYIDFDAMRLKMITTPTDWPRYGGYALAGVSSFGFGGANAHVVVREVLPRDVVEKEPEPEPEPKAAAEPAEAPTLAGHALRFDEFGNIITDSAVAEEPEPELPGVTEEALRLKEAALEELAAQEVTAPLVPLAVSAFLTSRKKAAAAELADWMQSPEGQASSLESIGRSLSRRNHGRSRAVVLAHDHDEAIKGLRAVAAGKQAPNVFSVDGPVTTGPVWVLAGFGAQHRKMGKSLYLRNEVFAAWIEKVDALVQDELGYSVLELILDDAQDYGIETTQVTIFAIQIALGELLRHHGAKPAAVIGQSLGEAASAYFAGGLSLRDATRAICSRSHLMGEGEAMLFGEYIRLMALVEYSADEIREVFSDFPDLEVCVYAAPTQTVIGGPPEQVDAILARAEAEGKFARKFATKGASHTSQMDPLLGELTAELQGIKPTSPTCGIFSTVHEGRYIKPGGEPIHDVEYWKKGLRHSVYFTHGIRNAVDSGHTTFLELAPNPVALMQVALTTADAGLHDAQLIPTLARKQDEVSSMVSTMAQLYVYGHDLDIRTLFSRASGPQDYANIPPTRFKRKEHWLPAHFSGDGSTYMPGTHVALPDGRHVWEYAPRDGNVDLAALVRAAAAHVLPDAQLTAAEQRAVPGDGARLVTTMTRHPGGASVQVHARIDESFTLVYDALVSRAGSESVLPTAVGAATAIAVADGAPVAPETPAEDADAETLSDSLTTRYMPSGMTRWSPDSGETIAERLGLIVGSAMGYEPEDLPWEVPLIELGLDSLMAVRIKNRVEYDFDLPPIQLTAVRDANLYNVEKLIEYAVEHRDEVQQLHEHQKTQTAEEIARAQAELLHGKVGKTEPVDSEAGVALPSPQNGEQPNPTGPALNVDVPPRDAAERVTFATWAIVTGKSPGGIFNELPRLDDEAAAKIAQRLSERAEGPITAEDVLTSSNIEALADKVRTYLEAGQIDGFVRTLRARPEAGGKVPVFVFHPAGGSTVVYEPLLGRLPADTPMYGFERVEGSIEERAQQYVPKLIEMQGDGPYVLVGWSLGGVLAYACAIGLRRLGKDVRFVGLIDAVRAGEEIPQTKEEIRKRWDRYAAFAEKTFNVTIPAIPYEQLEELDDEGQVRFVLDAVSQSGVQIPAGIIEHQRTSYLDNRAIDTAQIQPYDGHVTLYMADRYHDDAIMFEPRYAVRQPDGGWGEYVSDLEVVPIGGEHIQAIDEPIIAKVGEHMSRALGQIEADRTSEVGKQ
UniProt Q4DA54, 1-478: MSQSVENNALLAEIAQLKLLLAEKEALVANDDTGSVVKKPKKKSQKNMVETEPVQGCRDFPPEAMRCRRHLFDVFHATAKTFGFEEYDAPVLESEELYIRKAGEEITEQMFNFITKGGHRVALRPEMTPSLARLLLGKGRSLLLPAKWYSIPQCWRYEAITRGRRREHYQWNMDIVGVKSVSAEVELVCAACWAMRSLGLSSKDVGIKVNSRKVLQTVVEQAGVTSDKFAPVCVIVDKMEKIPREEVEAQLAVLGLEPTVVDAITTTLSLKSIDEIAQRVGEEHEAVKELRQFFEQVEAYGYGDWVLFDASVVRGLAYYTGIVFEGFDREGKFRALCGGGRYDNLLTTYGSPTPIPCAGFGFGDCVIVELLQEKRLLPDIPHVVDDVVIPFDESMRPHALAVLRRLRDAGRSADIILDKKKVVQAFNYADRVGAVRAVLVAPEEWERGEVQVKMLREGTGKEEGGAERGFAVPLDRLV

Source: ChEMBL document CHEMBL3988442, “University of Dundee, Small-Polar-MMV Screening Library” (2021).

MtTrpRS: 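Enzyme assay of tryptophanyl-tRNA synthetase; the read-out is not stated. Target: Tryptophan-tRNA ligase, Mycobacterium tuberculosis (UniProt P9WFT3). Compounds at 10 µM. Direction is not recorded; retested compounds ran higher, which suggests that high means inhibition. Of about 65,000 compounds tested this way, about 64 (0.098%) reached 50% or more in at least one test.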
Leishmania in macrophages: 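Cell assay of Leishmania donovani living inside macrophages; the read-out is not stated. Concentration: 30 µM. Higher reads as stronger inhibition (inferred: compounds with an IC50 in retests scored well above the rest). Of about 69,000 compounds tested this way, about 1,000 (1.5%) reached 50% or more in at least one test.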
Pks13 thioesterase: 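Enzyme assay of the thioesterase domain of polyketide synthase 13; the read-out is not stated. Target: Polyketide synthase Pks13, Mycobacterium tuberculosis (UniProt I6X8D2). Tested at 30 µM. The record gives no direction; the compounds picked for IC50 retests had high values, so higher reads as stronger inhibition. About 67,000 compounds were tested under these conditions; 0.46% (about 300) showed 50% or more at least once.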
TcHisRS: 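Histidine-tRNA ligase, Trypanosoma cruzi CL Brener (UniProt Q4DA54). Enzyme assay of histidyl-tRNA synthetase; the read-out is not stated. Compounds at 30 µM. Direction is inferred from retests: higher values go with stronger inhibition. Of about 69,000 compounds tested this way, about 31 (0.045%) reached 50% or more in at least one test.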

The filed quantity is “Percent Effect” (%).
The controls that fix the scale are not given in the record; negative values are as filed.
This is an unselected part of the compounds tested.

Result for O=C(NCCCn1cccn1)N1CCCC1c1ccsc1 (centres unmarked) was MtTrpRS: 4.417%; Leishmania in macrophages: 17.45%; Pks13 thioesterase: -0.957%; TcHisRS: 8.333%.
Result for CN1CCCc2c1nc1c(c2N)CCC1 was MtTrpRS: -1.296%; Leishmania in macrophages: 2.823%; Pks13 thioesterase: -1.165%; TcHisRS: 5.941%.
Result for CC(C)C1CN(S(=O)(=O)c2ccc(C#N)cc2)CCS1 (centres unmarked) was MtTrpRS: -0.9372%; Leishmania in macrophages: 15%; Pks13 thioesterase: -5.66%; TcHisRS: -2.02%.
Result for NS(=O)(=O)N1CCc2ccc(NC(=O)CCc3ccncc3)cc21 was MtTrpRS: -0.6173%; Leishmania in macrophages: 25.83%; Pks13 thioesterase: -25.12%; TcHisRS: 12.81%.
Result for COCCOc1ccccc1CNCc1c(C)nn(C)c1N(C)C was MtTrpRS: 3.052%; Leishmania in macrophages: 14.09%; Pks13 thioesterase: -3.74%; TcHisRS: 5.263%.
Result for Cc1ccc(-c2ccnc(NC(C)c3c(C)n[nH]c3C)n2)c(C)n1 (centres unmarked) was MtTrpRS: -1.104%; Leishmania in macrophages: -15.53%; Pks13 thioesterase: -9.226%; TcHisRS: 6.818%.
Result for COc1cc(CCC(=O)N2CCC(c3cnccn3)CC2)on1 was MtTrpRS: -4.09%; Leishmania in macrophages: 17.87%; Pks13 thioesterase: 14.32%; TcHisRS: 8.333%.
Result for O=C(O)C(F)(F)F.O=C(O)C(F)(F)F.[H][C@]12CN(Cc3ccncc3)C(=O)[C@@]1([H])CN(C1CCOCC1)C2 was Leishmania in macrophages: 18.85%.
Result for CCC1CN(C)c2ccccc2CN1C(=O)CCn1cncn1 (centres unmarked) was MtTrpRS: 4.562%; Leishmania in macrophages: -0.7688%; Pks13 thioesterase: -13.25%; TcHisRS: 11.67%.
Result for CC(C)c1cnc(CNc2c(F)cccc2-n2cccn2)o1 was MtTrpRS: 0.9479%; Leishmania in macrophages: 23.43%; Pks13 thioesterase: -9.114%; TcHisRS: 0%.
Result for Cc1ccc2nc(NCCCN3CCCCCC3=O)n(C)c(=O)c2c1 was MtTrpRS: 0.6717%; Leishmania in macrophages: 10.86%; Pks13 thioesterase: 6.763%; TcHisRS: -1.02%.
Result for CC[C@H]1N(CC2CCOCC2)CCC[C@]12CCC(=O)N2 was MtTrpRS: -7.228%; Pks13 thioesterase: 4.522%; TcHisRS: 2.532%.
Result for COC(=O)c1ccc(N2CCN(C(=O)c3ccc(O)nc3)C(C)C2)cc1 (centres unmarked) was MtTrpRS: -5.136%; Leishmania in macrophages: -18.91%; Pks13 thioesterase: 1.471%; TcHisRS: 2.924%.
Result for [H][C@]12CCN(C(=O)Cc3cccc(OC)c3)CC[C@@]1([H])S(=O)(=O)N(C)C2 was Leishmania in macrophages: 5.432%.
Result for Cc1cccc(CN2CCC3(CC2)NC(=O)CC3c2ccccc2)n1.O=C(O)C(F)(F)F (centres unmarked) was Leishmania in macrophages: 6.351%.
Result for COc1c(CNC2CCc3cc(Cl)ccc32)c(C)nn1C (centres unmarked) was MtTrpRS: 3.464%; Leishmania in macrophages: 34.88%; Pks13 thioesterase: -14.92%; TcHisRS: 4.843%.
Result for CC(=O)N1CCCC(C(=O)NCc2noc(Cc3ccccc3)n2)C1 (centres unmarked) was MtTrpRS: -5.74%; Leishmania in macrophages: 8.466%; Pks13 thioesterase: -4.595%; TcHisRS: 3.614%.
Result for CNC(=O)c1cccnc1N1CCC(Oc2ccc(F)cc2)CC1 was MtTrpRS: -1.485%; Leishmania in macrophages: -2.403%; Pks13 thioesterase: 0.6053%; TcHisRS: 8.173%.
Result for O=C(CCc1cn[nH]c1)N1C[C@@H](CN2CCCCCC2)[C@@H](CO)C1 was MtTrpRS: -3.32%; Leishmania in macrophages: 15.76%; Pks13 thioesterase: -27.77%; TcHisRS: -1.571%.
Result for Cc1ccn2ncc(C(=O)N3CCCC(n4nc(C)nc4C)C3)c2n1 (centres unmarked) was MtTrpRS: -0.7323%; Leishmania in macrophages: 17.1%; Pks13 thioesterase: -22.27%; TcHisRS: 2.521%.

Some entries from above, unchanged:

| Compound | MtTrpRS | Leishmania in macrophages | Pks13 thioesterase | TcHisRS |
|---|---|---|---|---|
| `CC(C)C1CN(S(=O)(=O)c2ccc(C#N)cc2)CCS1` (centres unmarked) | -0.9372% | 15% | -5.66% | -2.02% |
| `CNC(=O)c1cccnc1N1CCC(Oc2ccc(F)cc2)CC1` | -1.485% | -2.403% | 0.6053% | 8.173% |